The target of experiment [1] is Flag-Smad7 (UniProt O15105). The experiment is described as follows: co-IP; HEK293 cells transiently co-transfected with pcDNA3.1-HA-REGγ and pcDNA3.1-Flag-Smad7 for 48 h; CHAPS lysis buffer; extracts incubated overnight with 2.5 µg anti-HA or anti-Flag antibody and Protein G beads; western blot; reciprocal.
The target of experiment [2] is HA-REGγ (UniProt P61289). The description is as above.

The chains behind the UniProt entries cited, without tags or fusion partners.
UniProt O15105: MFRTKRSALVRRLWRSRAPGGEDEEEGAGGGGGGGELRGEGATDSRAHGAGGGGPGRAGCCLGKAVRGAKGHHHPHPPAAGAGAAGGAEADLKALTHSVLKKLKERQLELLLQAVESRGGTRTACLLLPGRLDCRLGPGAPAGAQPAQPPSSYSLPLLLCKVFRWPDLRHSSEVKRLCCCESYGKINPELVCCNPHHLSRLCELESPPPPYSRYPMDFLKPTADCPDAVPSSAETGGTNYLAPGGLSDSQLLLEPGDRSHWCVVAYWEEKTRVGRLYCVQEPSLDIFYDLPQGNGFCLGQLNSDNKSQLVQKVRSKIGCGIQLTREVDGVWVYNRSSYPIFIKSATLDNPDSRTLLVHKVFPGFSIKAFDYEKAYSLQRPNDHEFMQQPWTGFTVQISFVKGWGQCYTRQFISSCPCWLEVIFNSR
UniProt P61289: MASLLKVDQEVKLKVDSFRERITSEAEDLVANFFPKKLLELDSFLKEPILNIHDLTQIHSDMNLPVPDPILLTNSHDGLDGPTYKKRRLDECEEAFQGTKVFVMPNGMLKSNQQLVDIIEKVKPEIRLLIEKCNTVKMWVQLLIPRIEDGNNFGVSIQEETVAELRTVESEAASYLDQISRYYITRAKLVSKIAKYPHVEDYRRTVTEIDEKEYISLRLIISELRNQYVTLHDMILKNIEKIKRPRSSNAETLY

These are yes or no findings as the source states them, for the method shown. Binding seen in cells or lysates may run through a third protein. Some results given as binding are weak or reduced against the parent protein; the word gives no strength.

Consider HA-REGγ (from UniProt P61289 1-254), for which the binding entry in experiment [1] is on record as “binds”.
With Flag-Smad7 (from UniProt O15105 1-426), the binding entry in experiment [2] is listed as “binds”.

Source of the values: paper PMC7205985.
